Experimental findings from paper PMC4322365, “A Ligand-observed Mass Spectrometry Approach Integrated into the Fragment Based Lead Discovery Pipeline” (Scientific Reports, 2015) are described below.

The nature of this series: Recovery rate of fragment after ultrafiltration (nonspecific binding to filter membrane). Conditions: MS intensity of the fragment before and after ultrafiltration.

For the compound `N#CCc1ccc(O)cc1` [Fragment 114], the “Recovery rate (%)” value came out at 76.2%.

With `N#CC(c1ccccc1)N1CCOCC1` (centres unmarked) [Fragment 328], the “Recovery rate (%)” value came to 57.4%.
